Measurements taken from PMC9829102.
These are yes or no findings as the source states them, for the method shown. In cells and extracts the contact can be indirect. A yes stands for co-enrichment or nearness to the bait. Other partners may have been found.

Target: Aplysia kinesin heavy chain 1 (Aplysia californica (endogenous in CNS))
Experiment: affinity purification with mass spectrometry; endogenous ApKHC1 complexes immunoprecipitated with anti-ApKHC1 antibody and protein A/G agarose beads from Aplysia CNS lysate (50 mM Tris pH 7.5, 1 mM EDTA, 150 mM NaCl, 1 mM DTT, 0.5% NP-40, 4°C); eluted in 5% SDS, TMT 10-plex LC-MS/MS; animals untrained (control), STS 1 h, LTS 1 h or LTS 3 h

B1: uncharacterized protein LOC101861750 (protein, UniProt A0ABM0JXA1 1-652)
chain: MTPHGSVGLLLLLSVVSMATSQAVDFTRLPEATGESVVRATVSQIRESCAFQNDYLYLKRLAFVSSEYGEASGSFRPGFHGGIWQISREDYKLTLYMDSTFYDLIRKKLNIEWRKTKWSDLRKPIYSGIAAMLTLERLSPIPRNAKGQAKFFQKNLSGNATLFLDLISQTQRSCDTEELDMAFVLDGSASMTSSEFKESKKFTSLVLRNFYVEPDFVRVSVSTFSDTVTEYIRFLQFITTRSVRKAVFSIRRENGHTNTALALNYLRRFTFTTQGKSRKEAAKIAIIQTDGNSNSRIKTIEAASRLRAAGVTVFAIGIGDGIDSVELEGIASHPTCTHVRKIAVFSELKSLVDDVKDAVCKTNIFQNFNTENKYKCTREKTVMFDVISETTIVARPELGNLNIFGSFKITEPNSAFGDFSSIARAEKPLVIYLDKSDQTLYLSFSANVTHEDHCSSTFIVKAVDSNAMRKTAASTVCITDGHTRKCTDIDYVKSGDYQKVIAPSSSSATRACVEGLVGYQPHPNTTTKYVYCVSKTEAYVVTCPNGFAYLSSQQDCVVPASMDNDTVCRVCSSENWLLGLRNFPVAAKSRLYVNCTAVETCVIKDCGDNLQYYPNDQKCAEASLGSSTWSLHRSQAYIVVVLVLLFLRKLIC
B1 was tested, and the binding was “binds”.

B2: synaptobrevin (protein, UniProt P35589 1-180)
chain: MSAGPGGPQGGMQPPREQSKRLQQTQAQVDEVVDIMRVNVEKVLDRDQKISQLDDRAEALQAGASQFEASAGKLKRKYWWKNCKMMLILGAIIGVIVIIIIVWVVTSQDSGGDDSGSKTPATAGTSPKPVESGVQGGGGRQQRPHSQLVERRNVLRRTEDHIGCRPHIHSFIHIFMICLV
In the case of B2, the binding is reported as “binds”.
